Source: PubChem BioAssay AID2685 (National Center for Advancing Translational Sciences (NCATS), 2010)
The other results are listed elsewhere or left out. These are further read-outs of the screen, such as a control signal, another cell line or another target. No call is given for them. Compounds called inactive in the main read-out are mostly missing here. The note in brackets gives the kind of curve behind each potency; many fits are weak.

Test: qHTS Assay for Lipid Storage Modulators in Drosophila S3 Cells;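 for cell number change: cells counted by Cell Tracker Red CMTPX staining in the red channel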
Conditions: BODIPY lipid droplet fluorescence, 18-24 h; for cell number change: measured here: cell count max response, cells fed with added oleic acid
Procedure, shortened: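 Laser-scanning cytometry quantifies lipid droplet accumulation (500–530 nm total intensity; droplet/cell object ratio) in oleic acid-fed (400 uM added) Drosophila S3 cells treated with a concentration series. 20 uM Triacsin C defined 100% inhibition.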

[1] = measured here: lipid fluorescence (Fed channel) AC50, cells fed with added oleic acid
[2] = measured here: cell number channel AC50, cells fed with added oleic acid

SMILES	cell number change [%]	AC50 [1]	AC50 [2]
COCCCNC(=S)N/N=C/c1ccc(O)cc1	23.6	0.517 µM [falling, single point]	
CCOc1ccccc1NC(=O)COC(=O)C1CC1	-29.1	7.31 µM [falling, partial curve]	
Cc1ccc(S(=O)(=O)N2CCCCC2)cc1NC(=O)Cn1ccsc1=N	-11.4	23.1 µM [falling, partial curve]	4.11 µM [falling, single point]
CN(CC(=O)NCc1ccncc1)S(=O)(=O)c1ccc(Cl)cc1	-37.8		
CC(=O)Nc1ccc(S(=O)(=O)N(CCO)Cc2ccccc2)cc1	60.9	6.51 µM [rising, single point]	18.4 µM [rising, single point]
COc1ccc(C)cc1S(=O)(=O)N(C)CC(=O)N1CCCCCC1	8.43	13 µM [rising, partial curve, poor fit]	
Nn1c(SCC(=O)NCc2ccccc2)nnc1C1CC1	3.53	0.651 µM [rising, full curve]	
O=C(Nc1ccccc1)Nc1cccc(Cl)c1	-93.2		29.1 µM [falling, single point]
CCN(CC)C(=O)c1c(-c2ccccc2)oc2ccc(OC)cc12	34.4	20.6 µM [rising, partial curve]	13 µM [rising, partial curve, poor fit]
CCSc1nnc(NC(=O)COc2ccc(Cl)cc2)s1	-50.5		32.6 µM [falling, single point]
Cc1ccc(C(=O)NCC(=O)Nc2ccc3c(c2)CCC3)cc1C	-15.9	29.1 µM [falling, single point]	
CN(NS(=O)(=O)c1ccc(Br)cc1)c1nc(C(F)(F)F)nc2ccccc12	8.01		
CC1(C)Cc2c(C#N)c(N)n(-c3ccccc3)c(=O)c2CO1	4.19	0.0058 µM [rising, full curve, poor fit]	
COc1ccc(CNC(=O)CCC(=O)Nc2cccnc2)cc1	-0.324	0.116 µM [falling, full curve, poor fit]	
O=C(Cc1c[nH]c2ccccc12)N1CCN(S(=O)(=O)c2ccc(Cl)cc2)CC1	26		
COC(=O)c1c(-c2ccc(OC)cc2)oc2ccc(-c3ccc(OC)nc3)cc12	16.2	4.11 µM [falling, partial curve, poor fit]	
CCCCCCSc1nnc(-c2cnn(-c3ccccc3)c2-n2cccc2)n1C	8.12		
CC1CCc2sc(NC(=S)NC(=O)c3ccccc3)c(C#N)c2C1 (centres undefined)	17.5	0.651 µM [rising, full curve, poor fit]	
NC(CO)(CO)COCc1ccccc1	1.43		
Cc1ncc(CO)c2cc(C(=O)Nc3ccccc3Cl)c(=Nc3cccc(C(N)=O)c3)oc12	-6.34	3.26 µM [falling, full curve]	

Single records, as listed above.
`CC(=O)Nc1ccc(S(=O)(=O)N(CCO)Cc2ccccc2)cc1` in the list: cell number change [%]: 60.9; AC50 [1]: 6.51 µM [rising, single point]; AC50 [2]: 18.4 µM [rising, single point]
`COC(=O)c1c(-c2ccc(OC)cc2)oc2ccc(-c3ccc(OC)nc3)cc12` in the list: cell number change [%]: 16.2; AC50 [1]: 4.11 µM [falling, partial curve, poor fit]

Remaining list, next part:

SMILES	cell number change [%]	AC50 [1]	AC50 [2]
O=C(c1cnn2c1NC(c1ccc(Br)cc1)CC2C(F)(F)F)N1CCN(C23CC4CC(CC(C4)C2)C3)CC1 (centres undefined)	-27.9	29.1 µM [falling, single point]	
O=[N+]([O-])c1ccc(OCc2nnc(-c3ccccc3)o2)cc1		0.092 µM [rising, single point]	
CC1CCC(NC(=O)CN2C(=O)C3CC=CCC3C2=O)CC1 (centres undefined)	-42.8		29.1 µM [falling, single point]
CC1CN(S(=O)(=O)c2ccc(CN3C(=O)c4cccnc4C3=O)s2)c2ccccc2O1 (centres undefined)	-2.36	29.1 µM [rising, single point]	
CC(c1ccccc1)n1c(S(=O)(=O)O)nc2ccccc21 (centres undefined)	10	0.731 µM [rising, full curve, poor fit]	
Cc1cccc(NC2=Nc3ccccc3N3C2=Nc2c(c(C)nn2-c2ccccc2)C3c2ccc(O)c(O)c2)c1 (centres undefined)	-23.2	29.1 µM [falling, single point]	
COc1cc(CC(=O)OCC(=O)Nc2ccc([N+](=O)[O-])cc2)cc(OC)c1OC	113	20.6 µM [rising, partial curve]	20.6 µM [rising, partial curve]
O=[N+]([O-])c1cccc(/C=C/c2nc(C=Nc3ccc4ccccc4c3)c(O)o2)c1	1.44	29.1 µM [falling, single point]	
O=C(CSc1nc(-c2ccccc2)c(-c2ccccc2)[nH]1)N1CCN(S(=O)(=O)c2ccccc2)CC1	67.3		6.51 µM [rising, partial curve]
O=C(OCC(=O)N1CCN(C(=O)c2ccco2)CC1)c1sc2cc(F)ccc2c1Cl	-19.6	29.1 µM [falling, single point]	
COc1ccc(/C=N/n2cnc3c([nH]c4ccc(Br)cc43)c2=O)cc1CN1CCOCC1	-9.96		3.66 µM [falling, single point]
CCOc1ccccc1N(C(=O)c1snc(C(N)=O)c1N)C(C(=O)NCC1CCCO1)c1ccc2ncccc2c1 (centres undefined)	-1.3	6.51 µM [rising, single point]	
O=C(NCCc1ccc(Cl)cc1)C1CCCO1 (centres undefined)	54.1	29.1 µM [rising, single point]	2.06 µM [rising, partial curve]
C/C(N)=C(/C#N)C(=O)COC(=O)c1cc2c(s1)CCC(C)C2 (centres undefined)	-15.5	0.00461 µM [falling, full curve, poor fit]	0.461 µM [falling, full curve]
C/C(=N/NC(=O)c1cc(Cl)ccc1O)C12CC3CC(CC(C3)C1)C2	-33.5	29.1 µM [falling, single point]	32.6 µM [falling, single point]
CCOC(=O)C1=C(C)NC(SCC(=O)Nc2cc(C)on2)=C(C#N)C1c1cccs1 (centres undefined)	-15.2		
CCOC(=O)N1CCN(C(=O)c2ccccc2CCc2ccccc2)CC1	58.5	29.1 µM [rising, single point]	18.4 µM [rising, single point]
COc1cccc2cc(C(C)N(CCCN3CCOCC3)C(=O)Nc3ccc(Cl)cc3)oc12 (centres undefined)	-32.9	29.1 µM [falling, single point]	29.1 µM [falling, single point]
Cc1ccc(N2C(=O)c3n[nH]c(C)c3C2c2cccnc2)cc1 (centres undefined)	-1.43		
CCN(CC(=O)NCc1cccs1)C(=O)/C=C/c1cc(OC)ccc1OC	-8.02		

SMILES	cell number change [%]	AC50 [1]	AC50 [2]
Cc1ccsc1/C=N/n1c(-c2ccccn2)n[nH]c1=S	-38.6	4.61 µM [rising, full curve]	32.6 µM [falling, single point]
O=C(Nc1ccccc1Cl)NC1(C(=O)N2CCCCC2)CCCCC1	-15.5	14.6 µM [falling, partial curve, poor fit]	
OC(CNC1CCCCC1)CN1CCN(CC(O)CNC2CCCCC2)CC1 (centres undefined)	-14.7	3.26 µM [falling, full curve]	0.00461 µM [falling, full curve, poor fit]
Cc1cc(=O)n2nc(N3CCCC3C(=O)Nc3cccc(Cl)c3C)sc2n1 (centres undefined)	22.5		0.82 µM [rising, full curve, poor fit]
CSc1ccccc1C(=O)Nc1cc([N+](=O)[O-])ccc1C	-11.4	32.6 µM [falling, single point]	
COc1ccc(NC(=S)N2CCC(NC(=O)c3ccc(F)cc3)CC2)cc1	2.99		
Oc1ccc(/C=N/Nc2ncc(Cl)cc2Cl)cc1		29.1 µM [rising, single point]	
Clc1ncn(CCOc2ccccc2)c1Cl		0.651 µM [rising, single point]	
Cc1c(CNC2CCCC2)c(C(=O)O)c(C)n1Cc1ccccc1	-7.4	0.103 µM [falling, full curve, poor fit]	
CCN(CC)C(=O)C(=O)c1ccn(-c2c(C)csc2C(=O)OC)c1	-14.5	32.6 µM [falling, single point]	
O=C(NNCc1ccc(O)cc1)c1ccccc1Cl	19.4		
C=CCN(C(=O)c1csnn1)C(C(=O)NCc1ccc(F)cc1)c1cccs1 (centres undefined)	3.85	2.91 µM [falling, single point]	
Cc1ccc(S(=O)(=O)N2CCC(C(=O)Nc3ccc(S(=O)(=O)N4CCCC4)cc3)CC2)cc1	-31.3	18.4 µM [falling, single point]	16.4 µM [falling, single point]
Cc1nc(Nc2ccncc2)c2oc3ccccc3c2n1	83.9	2.59 µM [falling, partial curve]	6.51 µM [falling, single point]
COc1ccc(-c2oc(=O)n(C)c2-c2ccc(OC)cc2)cc1		5.8 µM [rising, single point]	6.51 µM [rising, single point]
Cc1nccn1CCCNC(=O)CC1C(=O)NCCN1Cc1ccc(F)cc1Cl (centres undefined)	-4.88	0.013 µM [falling, full curve, poor fit]	
COc1ccc(S(=O)(=O)N(CC(=O)NCc2cccnc2)C2CCCCC2)cc1OC	13.3	6.51 µM [rising, single point]	
Cc1ccc2c(C)c(C(=O)NCC(C)(C)N3CCOCC3)oc2c1C	17.3	16.4 µM [rising, partial curve]	
C#CCOCCOCCOCCNc1nc(N2CCN(C(=O)CCCCCCCCCCNC(=O)[C@H]([C@@H](C)CC)n3cc(CCCCN=C(N)N)nn3)CC2)nc(N2CCN(C(=O)CCCCCCCCCCNC(=O)[C@@H]([C@H](C)O)n3cc(C)nn3)CC2)n1	-43.4	9.2 µM [falling, partial curve]	8.2 µM [falling, partial curve, poor fit]

Rewritten with bars between the fields: part of the list above
SMILES | cell number change [%] | AC50 [1] | AC50 [2]
Cc1c(CNC2CCCC2)c(C(=O)O)c(C)n1Cc1ccccc1 | -7.4 | 0.103 µM [falling, full curve, poor fit] | 
Cc1ccc(S(=O)(=O)N2CCC(C(=O)Nc3ccc(S(=O)(=O)N4CCCC4)cc3)CC2)cc1 | -31.3 | 18.4 µM [falling, single point] | 16.4 µM [falling, single point]
